This passage reports binding results from publication PMC4726497.

Protein sequences, listed by entry. Tags and fused reporters are not part of them. Lines headed by an entry give the natural chain unless they say otherwise; changes in a name come on top.
UniProt Q9UIV1: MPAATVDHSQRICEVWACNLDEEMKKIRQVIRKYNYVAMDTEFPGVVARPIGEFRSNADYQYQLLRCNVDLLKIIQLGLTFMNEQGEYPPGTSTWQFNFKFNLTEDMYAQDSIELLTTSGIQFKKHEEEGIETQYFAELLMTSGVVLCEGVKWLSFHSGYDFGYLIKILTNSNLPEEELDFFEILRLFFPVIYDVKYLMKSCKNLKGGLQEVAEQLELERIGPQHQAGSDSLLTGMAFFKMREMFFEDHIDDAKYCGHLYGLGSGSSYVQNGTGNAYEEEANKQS

These are yes or no findings as the source states them, for the method shown. Binding seen in cells or lysates may run through a third protein. Some binding calls cover weakened binding; strength is not graded here.

One experiment concerns the target CNOT7-M141R (human) (UniProt Q9UIV1). As to the kind of experiment: co-IP; immunoprecipitation of FLAG-CNOT7 constructs with mouse anti-FLAG and Protein G Dynabeads, as described in ref. 57; cell line not stated.
Experiment [1] concerns the target FLAG-CNOT7 (wild type) (human) (UniProt Q9UIV1). Described as above.

B1: TOB1 (protein, UniProt P50616 1-345)
chain: MQLEIQVALNFIISYLYNKLPRRRVNIFGEELERLLKKKYEGHWYPEKPYKGSGFRCIHIGEKVDPVIEQASKESGLDIDDVRGNLPQDLSVWIDPFEVSYQIGEKGPVKVLYVDDNNENGCELDKEIKNSFNPEAQVFMPISDPASSVSSSPSPPFGHSAAVSPTFMPRSTQPLTFTTATFAATKFGSTKMKNSGRSNKVARTSPINLGLNVNDLLKQKAISSSMHSLYGLGLGSQQQPQQQQQPAQPPPPPPPPQQQQQQKTSALSPNAKEFIFPNMQGQGSSTNGMFPGDSPLNLSPLQYSNAFDVFAAYGGLNEKSFVDGLNFSLNNMQYSNQQFQPVMAN
Regarding B1, the binding entry (with CNOT7-M141R (human); in experiment [1]) was “binds” each time.
